Experimental data as given in PubChem BioAssay AID588497 (NMMLSC, 2011).
Among all 360,000 compounds or so, about 780 (0.22%) were called active. Inconclusive means that the source gave no clear call. Such entries were picked first, then a sample of the others. Rule as the data show it: active = inhibition above about 35% (passing the limit was not always enough); inconclusive = no clear call, values can overlap the other calls.

The compounds below were run on Botulinum neurotoxin type F light chain protease (Clostridium botulinum) (assay: BoNT/F light chain protease inhibitors, primary screen, biochemical, flow cytometry, MLPCN library (AID 588497; also: plate controls were buffer without enzyme for full effect and enzyme alone for no effect)). Conditions: Multiplex microsphere protease cleavage assay, at 10 µM, stronger effect = higher value.

Row | SMILES | inhibition
1 | OC(COc1cccc2ccccc12)CN1CCN(c2ccccc2Cl)CC1 (centres undefined) | inconclusive: -9.2%
2 | CN(CCCC(=O)NCCc1ccccc1)S(=O)(=O)c1ccc([N+](=O)[O-])cc1 | inconclusive: 27.9%
3 | Cc1cc(=O)oc(C)c1C(=O)Nc1ccc(N(C)C)cc1 | inconclusive: -51.2%
4 | CCOC(=O)CSc1nc2c(sc(=S)n2-c2ccc(CC)cc2)c(=O)[nH]1 | inactive: -11.9%
5 | CC1=NN(CCC#N)C(=O)/C1=C/c1ccc(N(C)C)cc1 | inactive: -2.5%
6 | O=C(Cc1ccc(Cl)cc1)Nc1ccc(CN2CCCCC2)cc1 | inconclusive: 178%
7 | CCC(=O)N(CC)C1=C(O)c2ccccc2C(=O)C1=O | inactive: -2%
8 | Cn1cccc1CNCc1ccccc1Cl | inactive: -8.5%
9 | CC(C)(C)C(=O)O/N=C(\N)c1ccc(Br)cc1 | inconclusive: 9.7%
10 | O=C(N/N=C/c1ccccc1[N+](=O)[O-])c1cnccn1 | inconclusive: 44.6%
11 | C1=C(CCNCc2ccccc2)CCCC1 | inactive: -4.6%
12 | N#Cc1ccc(CSc2nc(N)cc(=O)[nH]2)cc1 | inconclusive: -15.5%
13 | CCn1c(Oc2cccc(Br)c2)nc2c1c(=O)n(C)c(=O)n2C | inconclusive: -7%
14 | CN(C)c1ccc(-c2nn3c(-c4ccccc4Cl)nnc3s2)cc1 | inconclusive: 22.7%
15 | COc1ccc(NC(=O)C2CC3CCC2C3)c(OC)c1 (centres undefined) | inconclusive: -136%
16 | CC(=O)Nc1ccc(S(=O)(=O)NC2CC2)cc1 | inconclusive: 8.1%
17 | COc1cccc(-c2cc(CNC(=O)[C@H]3O[C@@H](n4ccc(=O)[nH]c4=O)[C@H](O)[C@@H]3O)no2)c1 | inactive: -7.2%
18 | CN(CC(=O)Nc1cccc(F)c1)C(=O)c1ccc(COc2ccccc2)cc1 | inconclusive: 12.1%
19 | Cc1nc2ccc([N+](=O)[O-])cc2c(=O)n1Cc1ccc(F)cc1 | inconclusive: 30.7%
20 | O=[N+]([O-])c1ccc(S(=O)(=O)N/N=C/c2ccc3c(c2)OCO3)cc1 | inactive: 3.6%

Row | SMILES | inhibition
21 | CCc1ccc(/C=N/NC(=O)c2nnn(-c3nonc3N)c2C(C)C)cc1 | inactive: -5.5%
22 | O=[N+]([O-])c1ccc2nonc2c1Nc1ccccc1 | inconclusive: -79.2%
23 | CCC(CO)Oc1cc(NC(=O)c2ccc(C)cc2)c2ncn(C(C)C)c2c1 (centres undefined) | inactive: 2.7%
24 | CCOCc1nnc(NC(=O)CCC2CCCCC2)s1 | inconclusive: -3%
25 | Cc1[nH]c2ccccc2c1C(=O)COC(=O)c1nccnc1N | inactive: 11%
26 | Cc1ccc(-c2nc3ccccc3c(=O)n2-c2c(C)n(C)n(-c3ccccc3)c2=O)cc1 | inconclusive: -138%
27 | CCOC(=O)C1(C)CCN1C(=O)c1ccc(F)c(Cl)c1 (centres undefined) | inactive: 3.3%
28 | CCOc1ccccc1NC(=O)CCn1ccnc1 | inconclusive: -24.7%
29 | O=C(NCc1cccc(F)c1)c1cccc2c1C(=O)c1ccc(N3CCCC3)cc1S2(=O)=O | inactive: 17.1%
30 | COc1ccccc1-c1csc(C(NC(C)=O)c2ccccc2)n1 (centres undefined) | inactive: -2.9%
31 | CC1CCCN(CCC(=O)Nc2ccc(F)c(F)c2)C1 (centres undefined) | inconclusive: -67.1%
32 | C=CCNC(=S)N1CCN(Cc2ccc3c(c2)OCO3)CC1 | inconclusive: 34.8%
33 | CCCN1CCC(N(CCc2ccccc2)Cc2ccccc2)CC1 | inconclusive: -4.8%
34 | O=c1[nH]c(/C=C\c2ccc(O)c(Cl)c2)nc(O)c1[N+](=O)[O-] | inactive: 10.4%
35 | Nc1cc(Cl)ccc1C(=O)OCC(=O)N1CCCC1 | inactive: -0.9%
36 | COc1ccc(CN2CCN(c3ncnc4scc(-c5ccc(F)cc5)c34)CC2)cc1 | inconclusive: 27%
37 | COc1cc(OC)c(CN2CCCN(C)CC2)cc1Br | inconclusive: -1%
38 | CCOc1ccc(OCCN2C(=O)NC3(CCCc4ccccc43)C2=O)cc1 (centres undefined) | inconclusive: -36.5%
39 | Cc1ccccc1COn1nnc2ccc(S(=O)(=O)N3CCOCC3)cc21 | inconclusive: 0.2%
40 | CCCC(=O)N(C)C1=Nc2ccc(Cl)cc2C(c2ccccc2)=[N+]([O-])C1 | inconclusive: 14.5%

Row | SMILES | inhibition
41 | Cc1[nH]c2ccc(OC(F)(F)F)cc2c1CCNCc1cccc([N+](=O)[O-])c1 | inconclusive: -16.5%
42 | COc1ccc(OC)c(NC(=O)CN2CCC(NC(=O)c3ccccc3C)CC2)c1 | inconclusive: -51.5%
43 | CCN(c1cc(C)cc(C)c1)S(=O)(=O)c1nnc(NC(=O)C(C)C)s1 | inconclusive: 2.8%
44 | Cc1ccc(C(=O)NCC(=O)OCC(=O)Nc2ccc(Cl)cc2C(F)(F)F)cc1C | active: 38.3%
45 | O=C(O)CCCc1nc(-c2ccc(Cl)cc2)no1 | inconclusive: -19.3%
46 | COc1ccc(NS(=O)(=O)c2ccc(C)c(C(=O)NCC(c3ccco3)N3CCCCC3)c2)cc1 (centres undefined) | inconclusive: -5.4%
47 | O=c1[nH]c2c(cnn2-c2ccc(Cl)cc2)c(=O)n1-c1cccc(Cl)c1 | inconclusive: -124%
48 | O=C(Nc1ccccc1)Nc1ccc(Cl)nc1Cl | inconclusive: -8.1%
49 | CC(Nc1ccc(Cl)c(Cl)c1)C(=O)NN (centres undefined) | inconclusive: -51.1%
50 | CCOC(=O)/C=C1\SCC(=O)N1CC(=O)NC12CC3CC(CC(C3)C1)C2 | inconclusive: 3.4%
51 | CC1CCN(C(=O)c2nc[nH]c2C(=O)OCCNC(=O)OC(C)(C)C)CC1 | inactive: 11%
52 | CC(C)CC(=O)Nc1ccc(S(=O)(=O)N2CCCC2)cc1 | inconclusive: -24.6%
53 | CN1C(=O)/C(=C2/C=CC=CN2C)OC1=S | inconclusive: 1.3%
54 | Cc1ccc(-n2[nH]c(C)c(/C=N/Nc3ccc([N+](=O)[O-])cc3[N+](=O)[O-])c2=O)cc1 | inactive: -2.4%
55 | COc1ccc(N=CC2=C(O)CC(C)(C)CC2=O)cc1OC | inconclusive: -57.6%
56 | COc1cccc(-c2csc(N3CCN(C(=S)NCC(C)C)CC3)n2)c1 | inconclusive: -35.2%
57 | CC(C)(C)OC(=O)NCCc1nnc(SCc2c(Cl)cccc2Cl)o1 | inconclusive: -5.3%
58 | CS(=O)(=O)N1CCC(C(=O)Nc2ccccc2Cl)CC1 | inconclusive: 24.5%
59 | COc1ccc(C(c2nnnn2C(C)(C)C)N2CCN(c3nc4ccccc4s3)CC2)cc1OC (centres undefined) | inconclusive: -68.9%

Molecules from the list above containing four or more nitrogen atoms (18):
Row | SMILES | inhibition
5 | CC1=NN(CCC#N)C(=O)/C1=C/c1ccc(N(C)C)cc1 | inactive: -2.5%
10 | O=C(N/N=C/c1ccccc1[N+](=O)[O-])c1cnccn1 | inconclusive: 44.6%
12 | N#Cc1ccc(CSc2nc(N)cc(=O)[nH]2)cc1 | inconclusive: -15.5%
13 | CCn1c(Oc2cccc(Br)c2)nc2c1c(=O)n(C)c(=O)n2C | inconclusive: -7%
14 | CN(C)c1ccc(-c2nn3c(-c4ccccc4Cl)nnc3s2)cc1 | inconclusive: 22.7%
17 | COc1cccc(-c2cc(CNC(=O)[C@H]3O[C@@H](n4ccc(=O)[nH]c4=O)[C@H](O)[C@@H]3O)no2)c1 | inactive: -7.2%
21 | CCc1ccc(/C=N/NC(=O)c2nnn(-c3nonc3N)c2C(C)C)cc1 | inactive: -5.5%
22 | O=[N+]([O-])c1ccc2nonc2c1Nc1ccccc1 | inconclusive: -79.2%
25 | Cc1[nH]c2ccccc2c1C(=O)COC(=O)c1nccnc1N | inactive: 11%
26 | Cc1ccc(-c2nc3ccccc3c(=O)n2-c2c(C)n(C)n(-c3ccccc3)c2=O)cc1 | inconclusive: -138%
36 | COc1ccc(CN2CCN(c3ncnc4scc(-c5ccc(F)cc5)c34)CC2)cc1 | inconclusive: 27%
39 | Cc1ccccc1COn1nnc2ccc(S(=O)(=O)N3CCOCC3)cc21 | inconclusive: 0.2%
43 | CCN(c1cc(C)cc(C)c1)S(=O)(=O)c1nnc(NC(=O)C(C)C)s1 | inconclusive: 2.8%
47 | O=c1[nH]c2c(cnn2-c2ccc(Cl)cc2)c(=O)n1-c1cccc(Cl)c1 | inconclusive: -124%
51 | CC1CCN(C(=O)c2nc[nH]c2C(=O)OCCNC(=O)OC(C)(C)C)CC1 | inactive: 11%
54 | Cc1ccc(-n2[nH]c(C)c(/C=N/Nc3ccc([N+](=O)[O-])cc3[N+](=O)[O-])c2=O)cc1 | inactive: -2.4%
56 | COc1cccc(-c2csc(N3CCN(C(=S)NCC(C)C)CC3)n2)c1 | inconclusive: -35.2%
59 | COc1ccc(C(c2nnnn2C(C)(C)C)N2CCN(c3nc4ccccc4s3)CC2)cc1OC (centres undefined) | inconclusive: -68.9%
